# PMC4161380
# Protein sequences, listed by entry. Tags and fused reporters are not part of them.
# UniProt Q15165: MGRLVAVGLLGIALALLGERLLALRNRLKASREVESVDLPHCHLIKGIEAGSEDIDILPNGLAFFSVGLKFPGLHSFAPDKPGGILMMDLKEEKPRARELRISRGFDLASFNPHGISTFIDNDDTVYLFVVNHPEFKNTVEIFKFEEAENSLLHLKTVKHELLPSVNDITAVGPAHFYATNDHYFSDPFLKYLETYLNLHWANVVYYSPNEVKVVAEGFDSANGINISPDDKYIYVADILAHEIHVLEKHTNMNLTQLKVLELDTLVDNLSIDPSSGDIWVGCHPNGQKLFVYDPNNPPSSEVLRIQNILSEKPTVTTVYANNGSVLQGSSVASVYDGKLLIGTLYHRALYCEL
# UniProt Q99497: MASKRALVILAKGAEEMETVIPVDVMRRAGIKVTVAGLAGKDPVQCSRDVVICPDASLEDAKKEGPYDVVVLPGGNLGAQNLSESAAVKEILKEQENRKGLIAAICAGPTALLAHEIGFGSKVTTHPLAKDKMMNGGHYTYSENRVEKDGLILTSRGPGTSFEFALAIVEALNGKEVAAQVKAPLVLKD
# Molecular target: FLAG-tagged Paraoxonase-2 (bait of the proteomic screen) (human) (UniProt Q15165)
# Test: affinity purification with mass spectrometry; FLAG-tagged bait transiently expressed in HEK293; lysate (20 mM Tris-HCl pH 7.5, 150 mM NaCl, 1 mM EDTA, 1% NP-40, 0.5% sodium deoxycholate) on anti-Flag M2-agarose, eluted with Flag peptide, SDS-PAGE bands analysed by LCQ Deca mass spectrometry and Mascot
substance,measurement,value
"DJ-1 (endogenous, HEK293) (from UniProt Q99497 1-189)",binding,binds

# These are yes or no findings as the source states them, for the method shown. In cells and extracts the contact can be indirect. Here binding means that the protein was enriched with, or labelled near, the bait; the list need not be complete.
